In PMC6775319:
Results are given in words; binding and its absence hold for the method and conditions named. In cells and extracts the contact can be indirect.

The chains behind the UniProt entries cited, without tags or fusion partners.
UniProt P15924: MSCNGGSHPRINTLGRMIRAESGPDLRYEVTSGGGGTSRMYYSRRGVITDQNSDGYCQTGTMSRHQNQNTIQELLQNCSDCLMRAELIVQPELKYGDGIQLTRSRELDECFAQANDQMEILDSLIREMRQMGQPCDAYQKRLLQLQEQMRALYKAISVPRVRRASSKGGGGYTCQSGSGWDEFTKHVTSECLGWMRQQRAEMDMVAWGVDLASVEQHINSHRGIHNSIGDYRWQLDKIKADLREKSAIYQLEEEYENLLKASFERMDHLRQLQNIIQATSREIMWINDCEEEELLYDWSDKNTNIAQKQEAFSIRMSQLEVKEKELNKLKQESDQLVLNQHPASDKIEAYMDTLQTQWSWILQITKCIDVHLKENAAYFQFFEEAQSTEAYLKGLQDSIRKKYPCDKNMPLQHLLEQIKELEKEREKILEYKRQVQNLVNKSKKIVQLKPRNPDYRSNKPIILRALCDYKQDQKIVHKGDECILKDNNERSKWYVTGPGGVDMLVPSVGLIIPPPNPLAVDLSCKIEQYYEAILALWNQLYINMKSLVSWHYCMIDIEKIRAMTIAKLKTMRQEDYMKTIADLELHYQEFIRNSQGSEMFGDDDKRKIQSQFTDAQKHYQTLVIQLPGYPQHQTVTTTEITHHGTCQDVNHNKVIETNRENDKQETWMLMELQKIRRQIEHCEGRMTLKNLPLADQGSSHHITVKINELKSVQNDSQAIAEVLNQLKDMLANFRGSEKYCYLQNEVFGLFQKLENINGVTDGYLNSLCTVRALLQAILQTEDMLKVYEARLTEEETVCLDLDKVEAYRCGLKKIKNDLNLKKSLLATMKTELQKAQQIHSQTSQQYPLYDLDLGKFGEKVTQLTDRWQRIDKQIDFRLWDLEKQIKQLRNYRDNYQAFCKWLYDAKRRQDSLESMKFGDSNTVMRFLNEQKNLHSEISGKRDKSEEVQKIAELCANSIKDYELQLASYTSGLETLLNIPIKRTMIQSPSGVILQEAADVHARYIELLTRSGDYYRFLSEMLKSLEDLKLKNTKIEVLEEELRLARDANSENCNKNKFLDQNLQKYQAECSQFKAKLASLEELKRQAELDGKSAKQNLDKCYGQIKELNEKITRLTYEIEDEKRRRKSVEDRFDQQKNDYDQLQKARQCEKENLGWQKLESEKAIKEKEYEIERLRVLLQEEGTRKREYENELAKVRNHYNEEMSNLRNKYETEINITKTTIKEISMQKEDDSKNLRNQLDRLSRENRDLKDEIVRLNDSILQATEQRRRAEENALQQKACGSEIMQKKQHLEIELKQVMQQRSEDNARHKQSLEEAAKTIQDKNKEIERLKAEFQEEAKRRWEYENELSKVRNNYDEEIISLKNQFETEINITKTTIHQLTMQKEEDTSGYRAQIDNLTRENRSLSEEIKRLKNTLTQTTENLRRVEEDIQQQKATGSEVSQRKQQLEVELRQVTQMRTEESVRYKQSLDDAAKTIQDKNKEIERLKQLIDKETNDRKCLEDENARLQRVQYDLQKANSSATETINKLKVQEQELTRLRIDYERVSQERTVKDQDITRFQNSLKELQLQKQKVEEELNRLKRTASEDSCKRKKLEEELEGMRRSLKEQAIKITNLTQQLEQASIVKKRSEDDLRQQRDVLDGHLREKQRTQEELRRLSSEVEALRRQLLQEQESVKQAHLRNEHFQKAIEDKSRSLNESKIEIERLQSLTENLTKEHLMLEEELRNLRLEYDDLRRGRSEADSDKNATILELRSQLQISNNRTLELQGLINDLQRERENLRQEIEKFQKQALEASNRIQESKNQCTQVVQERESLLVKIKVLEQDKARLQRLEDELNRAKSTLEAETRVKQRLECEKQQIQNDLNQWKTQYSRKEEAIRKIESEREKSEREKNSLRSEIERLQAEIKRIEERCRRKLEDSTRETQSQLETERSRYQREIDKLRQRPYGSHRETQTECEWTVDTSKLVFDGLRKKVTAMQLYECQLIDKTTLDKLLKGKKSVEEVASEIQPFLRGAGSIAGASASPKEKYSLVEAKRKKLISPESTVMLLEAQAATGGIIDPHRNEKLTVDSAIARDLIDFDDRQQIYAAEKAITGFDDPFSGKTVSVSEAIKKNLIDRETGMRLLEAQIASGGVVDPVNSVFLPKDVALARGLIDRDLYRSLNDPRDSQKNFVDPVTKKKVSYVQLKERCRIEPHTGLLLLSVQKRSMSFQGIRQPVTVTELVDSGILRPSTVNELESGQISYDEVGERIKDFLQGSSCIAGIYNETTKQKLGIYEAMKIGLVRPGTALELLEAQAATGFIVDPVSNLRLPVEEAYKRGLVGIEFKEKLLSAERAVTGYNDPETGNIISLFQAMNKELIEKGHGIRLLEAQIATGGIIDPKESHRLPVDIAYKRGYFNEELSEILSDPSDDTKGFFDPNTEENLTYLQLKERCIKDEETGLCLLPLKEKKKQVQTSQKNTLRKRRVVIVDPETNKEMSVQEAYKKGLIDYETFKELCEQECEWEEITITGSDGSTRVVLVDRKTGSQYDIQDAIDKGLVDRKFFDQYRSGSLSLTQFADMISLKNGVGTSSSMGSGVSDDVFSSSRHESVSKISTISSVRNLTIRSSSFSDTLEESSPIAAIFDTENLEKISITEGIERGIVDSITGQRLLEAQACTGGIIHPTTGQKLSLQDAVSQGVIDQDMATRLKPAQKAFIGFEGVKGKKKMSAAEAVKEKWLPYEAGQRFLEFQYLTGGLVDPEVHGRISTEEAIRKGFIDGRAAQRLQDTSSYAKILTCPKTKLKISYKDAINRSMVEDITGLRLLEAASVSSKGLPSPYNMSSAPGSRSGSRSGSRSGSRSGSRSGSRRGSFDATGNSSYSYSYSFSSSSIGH
UniProt P54274: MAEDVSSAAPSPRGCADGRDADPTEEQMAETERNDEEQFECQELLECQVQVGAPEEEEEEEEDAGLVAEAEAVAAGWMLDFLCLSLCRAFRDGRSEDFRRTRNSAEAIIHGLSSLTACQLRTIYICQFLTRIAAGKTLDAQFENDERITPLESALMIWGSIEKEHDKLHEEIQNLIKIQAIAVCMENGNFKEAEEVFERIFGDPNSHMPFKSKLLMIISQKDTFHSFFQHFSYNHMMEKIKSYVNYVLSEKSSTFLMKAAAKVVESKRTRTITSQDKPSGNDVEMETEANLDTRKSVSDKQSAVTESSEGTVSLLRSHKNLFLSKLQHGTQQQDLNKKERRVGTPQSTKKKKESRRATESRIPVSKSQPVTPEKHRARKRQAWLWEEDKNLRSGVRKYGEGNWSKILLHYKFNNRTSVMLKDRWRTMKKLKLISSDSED

Molecular target: Desmoplakin (DSP) (human (endogenous in HEK293 and MCF-7)) (UniProt P15924)
Test: co-IP; endogenous proteins in HEK293 and MCF-7 cells; which protein was precipitated is not given; knockdown of DSP as control

## TRF1 (from UniProt P54274 1-439)
  binding: no binding
